Measurements reported in PubChem BioAssay AID1508588 (Peter MacCallum Cancer Centre, 2020)
The whole screen tested about 18,000 reagents; shown is an unselected part. In the full data, 790 (4.4%) are marked active. 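Calls rest on a combination of fold-change classes in drug and vehicle arms, not all shown here.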 The numbers tell different reagents against one gene apart. Some reagents were tested in more than one well and are listed for each.

Aim: 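Which gene losses make BRAF-mutant melanoma cells more responsive to vemurafenib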 (primary screen)
Cells: human WM266.4 melanoma cells (BRAF V600 mutant)
Knock-down reagent: siRNA pool against human genes, 40 nM
Timing: 96 h from transfection to read-out
Challenge: vemurafenib 300 nM (about IC25), added 48 h after transfection, for 48 h; comparison arm got DMSO vehicle only
Measurement: 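Cell gain (DAPI nuclei at end minus before drug, mean of two replicates) and medium lactate by absorbance per cell, both as ratio to non-targeting siRNA, also grouped into fold-change classes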
Reading the numbers: cell gain with vemurafenib: higher = more cell gain than with non-targeting siRNA; lactate per cell with vemurafenib: higher = more lactate made per cell
Call rule: 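Enhancement is called by pairing each knock-down's vehicle-arm and drug-arm fold-change classes for viability or glycolysis; which class combinations qualify is not given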
Meaning of the calls: active = enhances vemurafenib effect; inactive = no enhancement seen

no.	gene	reagent no.	cell gain with vemurafenib	lactate per cell with vemurafenib	activity call
1	TRIM27	1	0.49	1	inactive
2	TRIM27	1	0.57	1.38	inactive
3	PLA2G2E	1	0.36	0.5	inactive
4	SERPINF1	1	0.49	1.67	inactive
5	OR4M1	1	0.7	0.64	inactive
6	ATP6V1B2	1	0.51	1.54	inactive
7	DPCD	1	0.79	1.08	inactive
8	OR4D1	1	0.27	1.57	inactive
9	EGF	1	0.44	1.51	inactive
10	HGF	1	1.09	0.55	inactive
11	AGR2	1	0.61	1.6	inactive
12	TRAF2	1	0.32	0.76	inactive
13	LAMA5	1	0.61	1.7	inactive
14	HRAS	1	0.24	1.34	inactive
15	RBMY1J	1	0.95	0.7	inactive
16	MBD1	1	0.76	0.97	inactive
17	WDR70	1	0.72	0.72	inactive
18	ALOXE3	1	0.35	0.92	inactive
19	TMEM53	1	0.21	1.73	inactive
20	CASP8	1	1.43	0.62	inactive
21	TSPOAP1	1	0.82	1.02	inactive
22	SEM1	1	0.39	1.16	inactive
23	CAVIN1	1	1.01	0.81	inactive
24	QPRT	1	0.05	0.63	active
25	AGAP1	1	1.19	0.72	inactive
26	OR5T3	1	-0.03	2.28	inactive
27	TGS1	1	0.75	1	inactive
28	SMPD2	1	0.68	0.6	inactive
29	OTP	1	0.95	0.73	inactive
30	SRSF9	1	0.81	1	inactive
31	NCKAP5L	1	0.78	0.62	inactive
32	GAGE7	1	1.1	0.54	inactive
33	ENKD1	1	1.02	1.02	inactive
34	TANC1	1	0.87	0.68	inactive
35	ENPP7	1	0.82	2.1	inactive
36	SFXN1	1	0.55	0.64	inactive
37	BCKDHA	1	0.4	-0.06	inactive
38	SNX20	1	0.62	1.68	inactive
39	HSDL2	1	0.21	2.41	inactive
40	BMF	1	1.1	0.94	inactive
41	AGAP4	1	0.68	1.41	inactive
42	AGAP4	2	0.53	0.31	active
43	PPP2R3C	1	0.2	0.56	inactive
44	MTFR1	1	1.2	0.46	inactive
45	SEMA6A	1	0.66	0.64	inactive
46	NOC4L	1	0.7	0.62	inactive
47	CBX4	1	0.2	0.79	inactive
48	CLNS1A	1	0.63	0.71	inactive
49	ZNF320	1	0.4	0.4	inactive

Copied from the list:
Under “activity call”, OTP shows inactive
Entry for NCKAP5L in “lactate per cell with vemurafenib”: 0.62
Under “lactate per cell with vemurafenib”, AGAP4 #1 reads 1.41
Entry of HSDL2 in “lactate per cell with vemurafenib”: 2.41
Under “activity call”, GAGE7 is entered as inactive
Entry of PPP2R3C under “cell gain with vemurafenib”: 0.2

More records follow.
no.	gene	reagent no.	cell gain with vemurafenib	lactate per cell with vemurafenib	activity call
50	LPIN1	1	0.58	1.4	inactive
51	H4C2	1	0.7	0.86	inactive
52	PTPN9	1	0.73	1.16	inactive
53	CD79B	1	0.83	1.02	inactive
54	HOXD4	1	1.17	0.98	inactive
55	SRSF2	1	0.3	1.01	inactive
56	VWA1	1	0.99	1.08	inactive
57	ERI1	1	0.78	1.01	inactive
58	LINGO1	1	0.72	0.98	inactive
59	SATB2	1	0.41	1.34	inactive
60	KCNC4	1	0.43	1.04	inactive
61	GSDME	1	0.91	0.76	inactive
62	PCDHGA3	1	1.01	0.82	inactive
63	PGGHG	1	0.69	0.86	inactive
64	ITPR2	1	0.48	0.47	active
65	POLR2H	1	0.44	1.01	inactive
66	ACTN1	1	0.59	0.64	inactive
67	ZNF608	1	0.31	1.18	inactive
68	YBEY	1	-0.19	-0.04	active
69	KPNA6	1	0.78	0.74	inactive
70	PEF1	1	0.6	1.06	inactive
71	STAG3	1	1.22	0.82	inactive
72	NTF3	1	0.01	1.54	inactive
73	MAGEA8	1	0.96	1.65	inactive
74	GBGT1	1	0.66	0.82	inactive
75	AKAP13	1	1.09	1.04	inactive
76	PRSS38	1	0.6	0.64	inactive
77	ASB1	1	0.54	0.6	inactive
78	CDKL4	1	0.56	0.7	inactive
79	RNF7	1	1.02	0.94	inactive
80	FSHR	1	1.08	1.12	inactive
81	LRRFIP2	1	0.52	1	inactive
82	ZNF324	1	0.07	2.31	inactive
83	HOXC5	1	0.14	1.18	inactive
84	VOPP1	1	0.55	0.87	inactive
